Results from article PMC8187744.
Results are given in words; binding and its absence hold for the method and conditions named. In cells and extracts the contact can be indirect. Some binding calls cover weakened binding; strength is not graded here.

By UniProt entry, the sequences of proteins in these tests, tags left out. Where a name states a change or a piece, a line headed by the entry shows the natural chain unless it says otherwise.
UniProt P31749: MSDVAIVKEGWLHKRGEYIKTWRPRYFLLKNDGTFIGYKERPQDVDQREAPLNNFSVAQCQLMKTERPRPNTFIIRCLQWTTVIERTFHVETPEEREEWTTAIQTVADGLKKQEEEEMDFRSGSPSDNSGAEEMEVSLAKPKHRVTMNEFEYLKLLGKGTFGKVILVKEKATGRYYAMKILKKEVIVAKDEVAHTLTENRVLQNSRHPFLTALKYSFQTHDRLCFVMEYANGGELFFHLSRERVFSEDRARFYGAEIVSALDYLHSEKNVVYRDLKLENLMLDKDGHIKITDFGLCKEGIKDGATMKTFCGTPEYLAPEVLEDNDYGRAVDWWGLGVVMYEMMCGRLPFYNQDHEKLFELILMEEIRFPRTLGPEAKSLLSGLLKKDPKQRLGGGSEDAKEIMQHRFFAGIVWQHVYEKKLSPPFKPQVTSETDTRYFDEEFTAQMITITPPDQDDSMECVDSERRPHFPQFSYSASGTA
UniProt O14744: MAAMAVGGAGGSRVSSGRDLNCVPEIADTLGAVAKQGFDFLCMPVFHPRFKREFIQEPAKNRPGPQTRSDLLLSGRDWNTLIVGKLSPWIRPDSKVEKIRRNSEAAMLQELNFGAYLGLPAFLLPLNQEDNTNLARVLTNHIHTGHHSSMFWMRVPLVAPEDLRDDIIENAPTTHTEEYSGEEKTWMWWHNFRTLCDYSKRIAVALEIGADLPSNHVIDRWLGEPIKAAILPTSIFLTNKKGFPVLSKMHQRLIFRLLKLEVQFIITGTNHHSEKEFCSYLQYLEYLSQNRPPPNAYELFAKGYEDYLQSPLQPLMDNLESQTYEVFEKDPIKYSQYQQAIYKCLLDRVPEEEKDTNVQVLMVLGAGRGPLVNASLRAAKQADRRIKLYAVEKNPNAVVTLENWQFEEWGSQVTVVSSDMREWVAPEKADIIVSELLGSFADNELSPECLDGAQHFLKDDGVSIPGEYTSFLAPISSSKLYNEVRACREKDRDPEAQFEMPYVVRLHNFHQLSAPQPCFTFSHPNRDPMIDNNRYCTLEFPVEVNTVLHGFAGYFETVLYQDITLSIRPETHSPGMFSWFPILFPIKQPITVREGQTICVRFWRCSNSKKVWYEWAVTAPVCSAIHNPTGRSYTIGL

How the values were obtained:
[1] = biological target: AKT1 (human (endogenous in MCF7)), P31749; experiment: co-IP; control and PRMT5-knockdown MCF7 cells; IB of WCLs and IP products; conditions: remark: other sources report otherwise
[2] = biological target: AKT1-WT expressed in DLD-1-AKT1/2-/- cells (human), P31749; experiment: co-IP; DLD-1-AKT1/2-/- cells expressing AKT1-WT or R391K; serum-starved 16 h, then 100 nM insulin for 60 min; conditions: remark: other sources report otherwise
[3] = biological target: protein arginine methyltransferase 5 (PRMT5) (human (endogenous in MCF7)) (UniProt O14744); experiment: co-IP; endogenous proteins, MCF7 whole cell lysates; PRMT5 immunoprecipitated, IgG as negative control
[4] = biological target: AKT1-R391K expressed in DLD-1-AKT1/2-/- cells (human) (UniProt P31749); experiment: co-IP; DLD-1-AKT1/2-/- cells expressing AKT1-WT or R391K; serum-starved 16 h, then 100 nM insulin for 60 min

B1: phosphoinositide-dependent kinase-1 (PDK1), O15530 1-556 (protein)
chain: MARTTSQLYDAVPIQSSVVLCSCPSPSMVRTQTESSTPPGIPGGSRQGPAMDGTAAEPRPGAGSLQHAQPPPQPRKKRPEDFKFGKILGEGSFSTVVLARELATSREYAIKILEKRHIIKENKVPYVTRERDVMSRLDHPFFVKLYFTFQDDEKLYFGLSYAKNGELLKYIRKIGSFDETCTRFYTAEIVSALEYLHGKGIIHRDLKPENILLNEDMHIQITDFGTAKVLSPESKQARANSFVGTAQYVSPELLTEKSACKSSDLWALGCIIYQLVAGLPPFRAGNEYLIFQKIIKLEYDFPEKFFPKARDLVEKLLVLDATKRLGCEEMEGYGPLKAHPFFESVTWENLHQQTPPKLTAYLPAMSEDDEDCYGNYDNLLSQFGCMQVSSSSSSHSLSASDTGLPQRSGSNIEQYIHDLDSNSFELDLQFSEDEKRLLLEKQAGGNPWHQFVENNLILKMGPVDKRKGLFARRRQLLLTEGPHLYYVDPVNKVLKGEIPWSQELRPEAKNFKTFFVHTPNRTYYLMDPSGNAHKWCRKIQEVWRQRYQSHPDAAVQ
- binding [1]: binds
- binding [2]: binds

B2: phosphoinositide-dependent kinase-1 (PDK1) (protein, UniProt O15530 1-556)
chain: B1 chain
- binding [3]: no binding
- binding [4]: binds
